{"source": "paper PMC6332312", "about": "“N-Monosubstituted Methoxy-oligo(ethylene glycol) Carbamate Ester Prodrugs of Resveratrol” (Molecules, 2015)", "data": [{"test": "Recovery from blood sample treatment (HPLC-UV), ratio to internal standard", "parameters": "species or system rat", "settings": "internal standard 4,4′-dihydroxybiphenyl", "values": [{"molecule": "COCCOCCOCCNC(=O)Oc1ccc(/C=C/c2cc(OC(=O)NCCOCCOCCOC)cc(OC(=O)NCCOCCOCCOC)c2)cc1", "note": "[Compound 2, (E)-5-(4-(2-(2-(2-Methoxyethoxy)ethoxy)ethyl)carbamate)-1,3-phenylene bis((2-(2-(2-methoxyethoxy)ethoxy)ethyl)carbamate)]", "recovery expressed as ratio to the recovery of internal standard": "0.914 ± 0.116"}, {"molecule": "COCCOCCOCCOCCNC(=O)Oc1ccc(/C=C/c2cc(OC(=O)NCCOCCOCCOCCOC)cc(OC(=O)NCCOCCOCCOCCOC)c2)cc1", "note": "[Compound 3, (E)-5-(4-(5,8,11-Tetraoxatridecan-13-ylcarbamate)styryl)-1,3-phenylene bis(2,5,8,11-tetraoxatridecan-13-ylcarbamate)]", "recovery expressed as ratio to the recovery of internal standard": "0.903 ± 0.104"}, {"molecule": "COCCOCCOCCOCCOCCOCCNC(=O)Oc1ccc(/C=C/c2cc(OC(=O)NCCOCCOCCOCCOCCOCCOC)cc(OC(=O)NCCOCCOCCOCCOCCOCCOC)c2)cc1", "note": "[Compound 4, (E)-5-(4-(2,5,8,11,14,17-Hexaoxanonadecan-19-ylcarbamate)styryl)-1,3-phenylene bis(2,5,8,11,14,17-hexaoxanonadecan-19-ylcarbamate)]", "recovery expressed as ratio to the recovery of internal standard": "0.967 ± 0.100"}]}]}
